# Patent US20210024903A1
# By UniProt entry, the sequences of proteins in these tests, tags left out. Residues count along the entry.
# UniProt P18177, residues 2-2366: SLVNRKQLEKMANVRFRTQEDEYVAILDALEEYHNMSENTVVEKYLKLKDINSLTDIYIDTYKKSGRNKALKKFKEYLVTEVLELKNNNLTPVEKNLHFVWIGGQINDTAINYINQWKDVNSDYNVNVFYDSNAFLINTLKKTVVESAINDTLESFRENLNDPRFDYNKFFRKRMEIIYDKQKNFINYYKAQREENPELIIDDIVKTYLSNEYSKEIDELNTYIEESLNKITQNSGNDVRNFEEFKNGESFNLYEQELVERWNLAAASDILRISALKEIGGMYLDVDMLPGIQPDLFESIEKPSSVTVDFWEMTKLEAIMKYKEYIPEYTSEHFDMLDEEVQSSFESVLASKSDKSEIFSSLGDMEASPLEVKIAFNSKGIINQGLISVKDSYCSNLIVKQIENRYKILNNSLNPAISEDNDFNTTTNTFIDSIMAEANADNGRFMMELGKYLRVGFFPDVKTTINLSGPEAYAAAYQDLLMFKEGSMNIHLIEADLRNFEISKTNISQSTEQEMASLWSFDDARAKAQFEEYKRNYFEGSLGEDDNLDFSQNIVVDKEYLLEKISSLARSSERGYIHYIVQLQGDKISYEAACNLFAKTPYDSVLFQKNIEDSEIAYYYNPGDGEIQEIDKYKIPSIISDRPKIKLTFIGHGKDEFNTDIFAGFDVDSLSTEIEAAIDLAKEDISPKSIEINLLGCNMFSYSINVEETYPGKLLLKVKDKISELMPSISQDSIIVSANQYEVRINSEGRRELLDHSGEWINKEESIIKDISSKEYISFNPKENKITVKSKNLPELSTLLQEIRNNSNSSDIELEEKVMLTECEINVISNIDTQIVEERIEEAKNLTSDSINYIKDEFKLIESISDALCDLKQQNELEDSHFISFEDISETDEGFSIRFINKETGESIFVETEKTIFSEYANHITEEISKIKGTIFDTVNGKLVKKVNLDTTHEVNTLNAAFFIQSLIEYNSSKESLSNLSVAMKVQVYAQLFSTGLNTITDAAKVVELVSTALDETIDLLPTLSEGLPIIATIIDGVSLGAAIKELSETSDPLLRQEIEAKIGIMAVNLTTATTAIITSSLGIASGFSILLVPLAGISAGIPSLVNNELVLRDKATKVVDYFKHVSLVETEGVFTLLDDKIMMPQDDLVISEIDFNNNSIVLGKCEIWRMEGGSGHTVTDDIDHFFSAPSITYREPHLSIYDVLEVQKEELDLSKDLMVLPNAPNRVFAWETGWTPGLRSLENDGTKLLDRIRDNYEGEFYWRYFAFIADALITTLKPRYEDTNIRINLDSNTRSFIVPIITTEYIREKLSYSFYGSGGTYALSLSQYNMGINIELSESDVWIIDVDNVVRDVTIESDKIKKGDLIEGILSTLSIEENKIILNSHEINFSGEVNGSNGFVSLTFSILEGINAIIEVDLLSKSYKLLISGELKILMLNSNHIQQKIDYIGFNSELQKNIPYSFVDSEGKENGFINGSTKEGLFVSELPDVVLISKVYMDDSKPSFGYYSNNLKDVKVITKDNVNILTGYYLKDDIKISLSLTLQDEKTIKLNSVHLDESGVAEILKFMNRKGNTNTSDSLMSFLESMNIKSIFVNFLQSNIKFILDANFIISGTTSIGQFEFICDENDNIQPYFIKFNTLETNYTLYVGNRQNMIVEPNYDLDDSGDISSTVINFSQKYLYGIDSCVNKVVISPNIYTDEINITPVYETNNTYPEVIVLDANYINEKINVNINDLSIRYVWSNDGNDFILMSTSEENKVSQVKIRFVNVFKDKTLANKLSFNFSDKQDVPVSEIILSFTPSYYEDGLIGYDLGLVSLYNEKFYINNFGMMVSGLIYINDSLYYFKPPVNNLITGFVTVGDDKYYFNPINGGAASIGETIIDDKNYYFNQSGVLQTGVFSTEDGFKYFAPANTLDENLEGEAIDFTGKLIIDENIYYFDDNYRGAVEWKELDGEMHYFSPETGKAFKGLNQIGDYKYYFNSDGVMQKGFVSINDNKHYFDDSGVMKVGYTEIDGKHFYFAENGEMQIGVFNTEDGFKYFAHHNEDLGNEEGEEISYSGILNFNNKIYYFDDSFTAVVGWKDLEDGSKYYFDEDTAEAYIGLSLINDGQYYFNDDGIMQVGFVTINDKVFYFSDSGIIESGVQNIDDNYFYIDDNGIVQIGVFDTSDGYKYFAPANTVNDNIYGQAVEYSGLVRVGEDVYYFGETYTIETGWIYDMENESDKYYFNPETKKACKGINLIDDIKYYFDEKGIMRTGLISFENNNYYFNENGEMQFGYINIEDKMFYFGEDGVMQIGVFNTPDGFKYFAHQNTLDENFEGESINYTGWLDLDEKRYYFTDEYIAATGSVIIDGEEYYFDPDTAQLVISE
# Results are given in words; binding and its absence hold for the method and conditions named. Some entries that bind do so weakly or less than the wild type.
# B1: B59-3 mAb (antibody, V domains shown)
# VH: QVQLQQPGAELVKPGASVKLSCKASGYTFTSYWMHWVKQRPGQGLEWIGVINPSNGRSTYSEKFKTTATVTVDKSSSTAYMQLSILTSEDSAVYYCARAYYSTSYYAMDYWGQGTSVTVSS
# VL: VLMTQSPLSLPVSLGDQASISCRSSQNIVHSNGNTYLEWYLQKPGQSPKLLIYKVSNRFSGVPDRFSGSGSGTYFTLKISRVEAEDLGVYYCFQGSHFPFTFGTGTKLEIKR
# B2: B59-3 (antibody, V domains shown)
# VH: B1 VH
# VL: B1 VL
# B3: B8-26 mAb (antibody, V domains shown)
# VH: QVQLQQPGAELVKPGAPVKLSCKASGYSFTSYWMNWVKQRPGRGLEWIGRIDPSNSEIYYNQKFKDKATLTVDKSSSTAYIQLSSLTSEDSAVYYCASGHYGSIFAYWGQGTTLTVSS
# VL: VQITQSPSYLAASPGETITINCRASKSISKYLAWYQEKPGKTNKLLLYSGSTLQSGIPSRFSGSRSGTDFTLIISSLEPEDSAMYYCQQHNEYPLTFGAGTKLELKR
# B4: B8-26 (antibody, V domains shown)
# VH: B3 VH
# VL: B3 VL
# How the values were obtained:
# [1] = biological target: Toxoid B, List (formalin-inactivated wild type toxin B) (C. difficile) (UniProt P18177); test: dot blot
# [2] = biological target: Toxoid B, List (formalin-inactivated wild type toxin B) (C. difficile) (UniProt P18177); test: dot blot, nondenaturing
# [3] = biological target: Commercial, FI Toxoid B (List Biologicals) (Clostridium difficile) (UniProt P18177); test: dot blot, non-denaturing
Binder,binding [1],binding [2],binding [3]
B1,binds,binds,–
B2,–,–,binds
B3,binds,binds,–
B4,–,–,binds
